According to patent publication US4481192A, “Acid-protease inhibiting peptide derivatives” (SANOFI, priority 1982, dated 1984):
Counter-ions that a name gives are not always drawn. Like-named read-outs stand apart in the source and are kept apart here. At least one compound was matched to its structure with a doubt left. Non-standard residues stand in square brackets, D forms with d. Residues, ends and D or L forms follow the SMILES beside them. *: point of attachment. Sta = CC(C)C[C@H](N)[C@@H](O)CC(=O)O; Isovaleryl = CC(C)CC(=O)*; Nle = CCCC[C@H](N)C(=O)O; Octanoyl = CCCCCCCC(=O)*; Boc = CC(C)(C)OC(=O)*

The chains behind the UniProt entries cited, without tags or fusion partners. Residues count along the entry.
UniProt P00791, 60-385: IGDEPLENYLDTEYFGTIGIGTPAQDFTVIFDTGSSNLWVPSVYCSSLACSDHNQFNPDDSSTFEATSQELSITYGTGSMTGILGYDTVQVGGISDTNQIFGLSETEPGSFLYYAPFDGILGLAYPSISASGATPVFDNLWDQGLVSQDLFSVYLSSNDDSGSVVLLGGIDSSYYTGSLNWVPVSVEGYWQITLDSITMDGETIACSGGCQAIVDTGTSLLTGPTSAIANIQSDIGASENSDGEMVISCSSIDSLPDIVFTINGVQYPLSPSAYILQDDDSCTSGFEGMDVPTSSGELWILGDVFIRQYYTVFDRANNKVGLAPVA

Legend:
[1] = target: T1, human plasma renin activity (Homo sapiens, UniProt P00797); test: Inhibition of the human plasma renin activity (P.R.A.); assay type: biochemical; conditions: 37° C., pool of human plasma
T1 construct: the human plasma contain and the substrate: angiotensinogen, and the enzyme: renin; from tissue; host or cells: pool of human plasma
T1 sequence (P00797 67-406): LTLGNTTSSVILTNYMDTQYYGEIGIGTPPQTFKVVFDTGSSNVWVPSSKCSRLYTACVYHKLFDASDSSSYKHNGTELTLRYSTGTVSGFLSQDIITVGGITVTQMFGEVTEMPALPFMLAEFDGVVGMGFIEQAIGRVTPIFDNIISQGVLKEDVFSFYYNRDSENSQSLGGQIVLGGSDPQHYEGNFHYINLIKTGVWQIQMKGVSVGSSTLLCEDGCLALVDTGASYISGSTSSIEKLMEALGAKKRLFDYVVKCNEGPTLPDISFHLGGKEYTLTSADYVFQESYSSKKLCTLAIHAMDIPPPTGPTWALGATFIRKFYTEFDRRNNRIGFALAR
Protocol: The angiotensin I released during the reaction (the human plasma contain and the substrate: angiotensinogen, and the enzyme: renin) is measured by radioimmunological determination using a kit.
Of course, an inhibitor of the enzyme for conversion of the PMSF (phenylmethylsulphonyl fluoride) is added to the incubation medium.
Two types of experiments were carried out:
one at pH 6, which is the optimum pH for the enzyme reaction with human renin (maleate buffer, incubation: 30 minutes), and
the other at pH 7.4, which is the physiological pH (phosphate buffer, incubation: 60 minutes).
(§1) A 10^-3 M stock solution of the peptide is made up in a mixture containing equal volumes of a solution A (19 ml of methanol+1 ml of acetic acid) and a solution B (4 ml of methanol+2 ml of sodium hydroxide solution).
(§2) The subsequent dilutions of the peptide are then prepared in the appropriate buffer in accordance with the procedures described above.

porcine pepsin = porcine pepsin (Sus scrofa, UniProt P00791); test: Inhibition of porcine pepsin; assay type: biochemical; conditions: pH 2, substrate bovine haemoglobin, 37° C.
Protocol: The method used is that of TAKAAKI AOYAGI (J. Antibiotics, 24, pages 687-694, 1971). The substrate used is bovine haemoglobin and the enzyme is porcine pepsin.
0.5% strength haemoglobin is hydrolysed with pepsin (1 mcg/ml) at 37° C. in 0.02M KCl-HCl buffer at pH 2.
Preincubation takes place for 3 minutes, followed by incubation for 25 minutes. After precipitation of the proteins with 1.7M perchloric acid, the optical density of the supernatant is determined on a spectrophotometer at 280 nm.
The results are expressed as the percentage inhibition of the maximum optical density obtained in the absence of inhibitor. They are also expressed as an IC50.
as §1, §2

[2] = pH 6, maleate buffer, incubation 30 minutes, read-out: INHIBITION OF HUMAN P.R.A. (IC50) pH 6
[3] = pH 7.4, phosphate buffer, incubation 60 minutes, read-out: INHIBITION OF HUMAN P.R.A. (IC50) pH 7.4

| SMILES | IC50 [1, 2] | IC50 [1, 3] | IC50 (porcine pepsin) |
| --- | --- | --- | --- |
| CCCC[C@H](NC(=O)[C@H](Cc1ccccc1)NC(=O)CC(C)C)C(=O)N[C@@H](CC(C)C)[C@@H](O)CC(=O)N[C@@H](C)C(=O)N[C@@H](CC(C)C)[C@@H](O)CC(=O)OC [SR 41919, iVa--Phe--Nle--Sta--Ala--Sta--OMe] (Isovaleryl-F[Nle][Sta]A[Sta]-OMe) | 0.02 nM | 110 nM | 20 nM |
| CCCCCCCC(=O)N[C@@H](Cc1ccccc1)C(=O)N[C@@H](Cc1ccccc1)C(=O)N[C@@H](CC(C)C)[C@@H](O)CC(=O)N[C@@H](C)C(=O)N[C@@H](CC(C)C)[C@@H](O)CC(=O)O [SR 42062, CH3 (CH2)6 --Co--Phe--Phe--Sta--Ala--Sta--OH] (Octanoyl-FF[Sta]A[Sta]-OH) | 61 nM | 1700 nM | 26 nM |
| CC(C)C[C@H](NC(=O)[C@H](C)NC(=O)C[C@H](O)[C@H](CC(C)C)NC(=O)[C@H](Cc1ccccc1)NC(=O)[C@H](Cc1ccccc1)NC(=O)OC(C)(C)C)[C@@H](O)CC(=O)O [SR 42129, Arginine salt of Boc--phe--Phe--Sta--Ala--Sta--OH] (Boc-FF[Sta]A[Sta]-OH) | 0.47 nM | 300 nM | 16 nM |
| CC(C)CC(=O)N[C@@H](Cc1ccccc1)C(=O)N[C@@H](Cc1ccccc1)C(=O)N[C@@H](CC(C)C)[C@@H](O)CC(=O)N[C@@H](C)C(=O)N[C@@H](CC(C)C)[C@@H](O)CC(N)=O [SR 42238, iVa--Phe--Phe--Sta--Ala--Sta--NH2] (Isovaleryl-FF[Sta]A[Sta]-NH2) | – | – | 21 nM |
